This is a selection; strong and weak results do not stand in their true shares. For part of these data: At the low end of the ranking the order means little. The list shows a part of the results. For part of these data: The exact form of the protein is not confirmed.
Legend:
Test in all cases: DAPPL (digital affinity profiling via proximity ligation, sequencing)
Conditions in all cases: 10 mM Tris-HCl pH 7.5, 50 mM NaCl, 1 mM DTT, 4% glycerol, room temperature, 30 min; GST-TFs on glutathione beads, 16-mer random dsDNA library, 0.1% …; high values mean tight binding; double strand, one strand shown; scale: fold enrichment (6-mer frequency, TF over GST control)
GABPA = molecular target: T1, GABPA (UniProt Q06546)
T1 sequence: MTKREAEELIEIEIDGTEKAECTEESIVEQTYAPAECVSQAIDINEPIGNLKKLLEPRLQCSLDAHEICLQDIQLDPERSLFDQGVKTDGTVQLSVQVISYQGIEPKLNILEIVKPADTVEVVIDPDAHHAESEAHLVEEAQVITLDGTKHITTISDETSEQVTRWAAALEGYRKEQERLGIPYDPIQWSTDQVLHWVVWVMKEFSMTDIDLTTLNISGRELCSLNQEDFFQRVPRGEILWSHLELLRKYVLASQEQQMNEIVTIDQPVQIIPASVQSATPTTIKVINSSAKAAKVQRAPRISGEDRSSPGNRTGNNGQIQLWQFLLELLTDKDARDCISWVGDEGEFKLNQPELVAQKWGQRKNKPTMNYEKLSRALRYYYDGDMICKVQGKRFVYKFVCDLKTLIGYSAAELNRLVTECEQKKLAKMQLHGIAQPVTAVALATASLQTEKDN

ETS1 = molecular target: T2, ETS1 (UniProt P14921)
T2 sequence: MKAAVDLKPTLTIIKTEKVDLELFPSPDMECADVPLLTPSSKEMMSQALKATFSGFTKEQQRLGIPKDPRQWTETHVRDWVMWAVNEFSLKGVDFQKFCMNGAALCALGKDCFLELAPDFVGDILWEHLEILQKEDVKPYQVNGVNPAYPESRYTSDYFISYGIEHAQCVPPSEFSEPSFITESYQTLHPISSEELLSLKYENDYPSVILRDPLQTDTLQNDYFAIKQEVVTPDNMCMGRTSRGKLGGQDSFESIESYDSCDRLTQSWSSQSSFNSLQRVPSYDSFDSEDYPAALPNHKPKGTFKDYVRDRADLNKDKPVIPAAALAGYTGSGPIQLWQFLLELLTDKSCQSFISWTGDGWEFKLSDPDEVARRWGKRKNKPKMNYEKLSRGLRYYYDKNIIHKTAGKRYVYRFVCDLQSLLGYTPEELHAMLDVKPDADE

SPDEF = molecular target: T3, SPDEF (UniProt O95238)
T3 sequence: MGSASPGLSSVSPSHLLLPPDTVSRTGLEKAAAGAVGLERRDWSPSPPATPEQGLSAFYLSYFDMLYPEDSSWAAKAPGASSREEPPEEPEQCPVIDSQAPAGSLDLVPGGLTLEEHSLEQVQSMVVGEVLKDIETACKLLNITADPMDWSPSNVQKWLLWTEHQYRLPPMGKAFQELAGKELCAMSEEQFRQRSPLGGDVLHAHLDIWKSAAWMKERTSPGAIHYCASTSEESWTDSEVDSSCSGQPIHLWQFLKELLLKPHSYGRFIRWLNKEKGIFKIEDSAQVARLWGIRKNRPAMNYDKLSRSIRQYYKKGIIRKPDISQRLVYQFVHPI

| Sequence | binding signal (GABPA) | binding signal (ETS1) | binding signal (SPDEF) |
| --- | --- | --- | --- |
| CAAGTC | 0.826 | 0.916 | 0.833 |
| ACGAGA | 0.692 | 0.638 | 0.675 |
| GAGAAC | 0.413 | 0.403 | 0.382 |
| GAAGGA | 0.729 | 0.687 | 0.688 |
| AGGTCA | 0.795 | 0.718 | 0.738 |
| CCCGTG | 0.554 | 0.584 | 0.529 |

Reference: PMC7862700
